Here are results for 16 molecules from article PMC9097781.

By UniProt entry, the sequences of proteins in these tests, tags left out. Residues count along the entry.
UniProt P20029, residues 20-655: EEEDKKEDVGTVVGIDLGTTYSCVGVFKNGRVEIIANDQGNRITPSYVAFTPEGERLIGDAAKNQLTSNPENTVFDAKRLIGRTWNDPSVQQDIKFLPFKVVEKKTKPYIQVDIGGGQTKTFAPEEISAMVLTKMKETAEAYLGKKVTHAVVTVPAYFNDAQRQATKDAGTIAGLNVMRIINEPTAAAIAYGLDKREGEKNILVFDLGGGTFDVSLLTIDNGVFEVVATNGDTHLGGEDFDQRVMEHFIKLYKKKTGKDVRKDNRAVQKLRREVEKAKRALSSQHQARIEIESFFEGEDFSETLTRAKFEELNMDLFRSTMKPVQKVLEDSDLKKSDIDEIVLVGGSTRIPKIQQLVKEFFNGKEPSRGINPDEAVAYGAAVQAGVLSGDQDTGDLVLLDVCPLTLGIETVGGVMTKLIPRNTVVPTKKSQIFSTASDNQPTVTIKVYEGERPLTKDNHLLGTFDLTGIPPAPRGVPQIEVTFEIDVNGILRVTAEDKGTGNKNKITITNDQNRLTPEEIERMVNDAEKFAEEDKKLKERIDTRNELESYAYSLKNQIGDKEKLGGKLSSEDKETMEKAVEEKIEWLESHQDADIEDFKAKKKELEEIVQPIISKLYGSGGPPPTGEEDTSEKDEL
UniProt Q61879: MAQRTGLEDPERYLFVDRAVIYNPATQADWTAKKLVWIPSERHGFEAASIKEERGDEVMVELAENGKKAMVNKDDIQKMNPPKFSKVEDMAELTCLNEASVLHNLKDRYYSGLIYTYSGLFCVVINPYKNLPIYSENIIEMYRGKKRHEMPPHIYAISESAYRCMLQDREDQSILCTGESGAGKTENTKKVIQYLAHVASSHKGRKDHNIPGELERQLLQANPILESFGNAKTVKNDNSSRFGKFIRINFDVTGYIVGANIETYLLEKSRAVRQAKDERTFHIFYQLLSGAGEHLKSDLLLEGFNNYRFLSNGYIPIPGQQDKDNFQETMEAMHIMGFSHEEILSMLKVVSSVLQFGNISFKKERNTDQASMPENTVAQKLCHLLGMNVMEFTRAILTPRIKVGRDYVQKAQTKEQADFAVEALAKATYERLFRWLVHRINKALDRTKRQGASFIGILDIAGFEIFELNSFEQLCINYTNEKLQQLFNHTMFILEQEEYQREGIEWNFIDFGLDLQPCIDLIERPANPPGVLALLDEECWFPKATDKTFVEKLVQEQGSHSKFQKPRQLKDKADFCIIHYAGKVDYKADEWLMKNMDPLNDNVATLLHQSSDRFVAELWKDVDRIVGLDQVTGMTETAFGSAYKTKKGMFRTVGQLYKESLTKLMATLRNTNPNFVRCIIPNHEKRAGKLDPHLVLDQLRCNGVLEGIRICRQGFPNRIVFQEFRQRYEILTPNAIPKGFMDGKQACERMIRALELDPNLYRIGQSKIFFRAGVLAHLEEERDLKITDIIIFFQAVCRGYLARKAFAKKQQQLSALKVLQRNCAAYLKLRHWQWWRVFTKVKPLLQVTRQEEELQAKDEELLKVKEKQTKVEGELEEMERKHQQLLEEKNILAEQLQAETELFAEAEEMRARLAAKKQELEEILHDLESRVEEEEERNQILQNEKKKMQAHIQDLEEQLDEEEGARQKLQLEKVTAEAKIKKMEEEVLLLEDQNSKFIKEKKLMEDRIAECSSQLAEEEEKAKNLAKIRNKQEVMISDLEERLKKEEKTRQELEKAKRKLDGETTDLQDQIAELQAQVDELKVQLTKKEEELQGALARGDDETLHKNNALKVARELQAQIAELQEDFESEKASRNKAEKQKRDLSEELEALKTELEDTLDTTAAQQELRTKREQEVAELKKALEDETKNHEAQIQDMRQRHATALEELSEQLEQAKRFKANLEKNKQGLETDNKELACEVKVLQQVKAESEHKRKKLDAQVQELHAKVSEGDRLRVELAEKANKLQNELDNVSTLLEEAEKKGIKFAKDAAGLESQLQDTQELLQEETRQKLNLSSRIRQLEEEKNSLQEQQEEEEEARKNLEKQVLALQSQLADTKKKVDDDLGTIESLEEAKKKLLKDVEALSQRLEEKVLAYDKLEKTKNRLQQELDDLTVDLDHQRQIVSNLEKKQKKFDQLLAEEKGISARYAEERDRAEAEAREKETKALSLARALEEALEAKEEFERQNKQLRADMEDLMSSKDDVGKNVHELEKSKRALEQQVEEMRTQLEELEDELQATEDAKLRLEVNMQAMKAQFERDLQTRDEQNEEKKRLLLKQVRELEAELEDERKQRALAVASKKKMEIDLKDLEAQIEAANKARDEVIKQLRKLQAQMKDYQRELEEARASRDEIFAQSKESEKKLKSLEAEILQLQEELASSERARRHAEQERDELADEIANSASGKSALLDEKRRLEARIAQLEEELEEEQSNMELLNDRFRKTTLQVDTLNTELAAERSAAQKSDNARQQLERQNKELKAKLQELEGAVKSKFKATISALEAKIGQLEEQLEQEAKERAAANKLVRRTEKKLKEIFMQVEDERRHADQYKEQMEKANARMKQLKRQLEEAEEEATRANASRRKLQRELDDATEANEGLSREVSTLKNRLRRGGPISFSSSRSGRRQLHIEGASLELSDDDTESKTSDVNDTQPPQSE
UniProt P38647, residues 47-679: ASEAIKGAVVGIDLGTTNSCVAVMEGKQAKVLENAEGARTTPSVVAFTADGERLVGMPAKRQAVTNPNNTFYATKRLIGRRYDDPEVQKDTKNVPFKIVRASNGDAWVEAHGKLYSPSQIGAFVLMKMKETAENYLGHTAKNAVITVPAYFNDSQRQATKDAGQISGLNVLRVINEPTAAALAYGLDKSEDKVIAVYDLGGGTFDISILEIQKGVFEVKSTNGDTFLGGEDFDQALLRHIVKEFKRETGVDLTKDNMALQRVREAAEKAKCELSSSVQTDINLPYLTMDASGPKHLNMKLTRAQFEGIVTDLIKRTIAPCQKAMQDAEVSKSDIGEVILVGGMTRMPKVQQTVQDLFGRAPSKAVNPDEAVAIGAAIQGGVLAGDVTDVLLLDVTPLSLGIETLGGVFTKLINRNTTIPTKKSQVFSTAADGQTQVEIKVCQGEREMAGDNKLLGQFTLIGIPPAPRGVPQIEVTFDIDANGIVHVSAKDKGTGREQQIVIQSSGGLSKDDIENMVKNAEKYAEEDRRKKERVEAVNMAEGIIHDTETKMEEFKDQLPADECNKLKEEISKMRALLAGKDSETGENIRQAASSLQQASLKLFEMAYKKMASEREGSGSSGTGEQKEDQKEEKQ
UniProt A2AQ07: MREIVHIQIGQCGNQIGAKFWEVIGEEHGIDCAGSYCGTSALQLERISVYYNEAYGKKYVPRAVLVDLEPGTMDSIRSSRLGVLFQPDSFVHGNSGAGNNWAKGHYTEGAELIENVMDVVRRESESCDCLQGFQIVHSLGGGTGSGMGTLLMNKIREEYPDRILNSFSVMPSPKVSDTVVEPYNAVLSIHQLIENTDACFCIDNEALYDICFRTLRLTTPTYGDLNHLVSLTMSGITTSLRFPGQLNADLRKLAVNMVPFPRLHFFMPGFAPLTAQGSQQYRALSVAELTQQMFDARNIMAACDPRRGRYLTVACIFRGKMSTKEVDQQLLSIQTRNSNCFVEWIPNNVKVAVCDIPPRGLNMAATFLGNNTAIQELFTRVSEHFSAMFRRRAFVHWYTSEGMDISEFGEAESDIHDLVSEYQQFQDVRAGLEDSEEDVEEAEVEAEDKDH
UniProt P68372: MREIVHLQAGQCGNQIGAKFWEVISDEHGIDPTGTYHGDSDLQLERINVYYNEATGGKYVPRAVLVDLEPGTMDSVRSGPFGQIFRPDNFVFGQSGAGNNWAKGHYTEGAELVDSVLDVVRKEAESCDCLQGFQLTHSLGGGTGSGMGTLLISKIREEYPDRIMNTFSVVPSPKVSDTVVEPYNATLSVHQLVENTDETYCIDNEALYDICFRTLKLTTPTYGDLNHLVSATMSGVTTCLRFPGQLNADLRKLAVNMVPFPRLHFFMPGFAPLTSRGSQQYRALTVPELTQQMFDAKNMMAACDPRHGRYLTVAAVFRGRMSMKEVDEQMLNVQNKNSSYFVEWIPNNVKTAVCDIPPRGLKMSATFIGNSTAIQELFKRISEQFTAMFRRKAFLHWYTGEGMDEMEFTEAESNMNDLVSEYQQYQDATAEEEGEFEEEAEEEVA
UniProt Q922F4: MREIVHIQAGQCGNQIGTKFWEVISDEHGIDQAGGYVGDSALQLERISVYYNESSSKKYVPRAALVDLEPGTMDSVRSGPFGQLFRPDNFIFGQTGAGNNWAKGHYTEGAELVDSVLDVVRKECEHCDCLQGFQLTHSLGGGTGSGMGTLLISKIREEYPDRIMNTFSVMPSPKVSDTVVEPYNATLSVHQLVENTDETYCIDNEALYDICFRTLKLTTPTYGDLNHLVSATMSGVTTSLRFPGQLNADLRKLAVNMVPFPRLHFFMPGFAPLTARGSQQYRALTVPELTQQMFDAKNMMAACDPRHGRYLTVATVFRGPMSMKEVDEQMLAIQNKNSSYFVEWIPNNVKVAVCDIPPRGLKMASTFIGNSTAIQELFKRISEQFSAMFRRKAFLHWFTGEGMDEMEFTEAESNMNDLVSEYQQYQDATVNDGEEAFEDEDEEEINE
UniProt Q99104: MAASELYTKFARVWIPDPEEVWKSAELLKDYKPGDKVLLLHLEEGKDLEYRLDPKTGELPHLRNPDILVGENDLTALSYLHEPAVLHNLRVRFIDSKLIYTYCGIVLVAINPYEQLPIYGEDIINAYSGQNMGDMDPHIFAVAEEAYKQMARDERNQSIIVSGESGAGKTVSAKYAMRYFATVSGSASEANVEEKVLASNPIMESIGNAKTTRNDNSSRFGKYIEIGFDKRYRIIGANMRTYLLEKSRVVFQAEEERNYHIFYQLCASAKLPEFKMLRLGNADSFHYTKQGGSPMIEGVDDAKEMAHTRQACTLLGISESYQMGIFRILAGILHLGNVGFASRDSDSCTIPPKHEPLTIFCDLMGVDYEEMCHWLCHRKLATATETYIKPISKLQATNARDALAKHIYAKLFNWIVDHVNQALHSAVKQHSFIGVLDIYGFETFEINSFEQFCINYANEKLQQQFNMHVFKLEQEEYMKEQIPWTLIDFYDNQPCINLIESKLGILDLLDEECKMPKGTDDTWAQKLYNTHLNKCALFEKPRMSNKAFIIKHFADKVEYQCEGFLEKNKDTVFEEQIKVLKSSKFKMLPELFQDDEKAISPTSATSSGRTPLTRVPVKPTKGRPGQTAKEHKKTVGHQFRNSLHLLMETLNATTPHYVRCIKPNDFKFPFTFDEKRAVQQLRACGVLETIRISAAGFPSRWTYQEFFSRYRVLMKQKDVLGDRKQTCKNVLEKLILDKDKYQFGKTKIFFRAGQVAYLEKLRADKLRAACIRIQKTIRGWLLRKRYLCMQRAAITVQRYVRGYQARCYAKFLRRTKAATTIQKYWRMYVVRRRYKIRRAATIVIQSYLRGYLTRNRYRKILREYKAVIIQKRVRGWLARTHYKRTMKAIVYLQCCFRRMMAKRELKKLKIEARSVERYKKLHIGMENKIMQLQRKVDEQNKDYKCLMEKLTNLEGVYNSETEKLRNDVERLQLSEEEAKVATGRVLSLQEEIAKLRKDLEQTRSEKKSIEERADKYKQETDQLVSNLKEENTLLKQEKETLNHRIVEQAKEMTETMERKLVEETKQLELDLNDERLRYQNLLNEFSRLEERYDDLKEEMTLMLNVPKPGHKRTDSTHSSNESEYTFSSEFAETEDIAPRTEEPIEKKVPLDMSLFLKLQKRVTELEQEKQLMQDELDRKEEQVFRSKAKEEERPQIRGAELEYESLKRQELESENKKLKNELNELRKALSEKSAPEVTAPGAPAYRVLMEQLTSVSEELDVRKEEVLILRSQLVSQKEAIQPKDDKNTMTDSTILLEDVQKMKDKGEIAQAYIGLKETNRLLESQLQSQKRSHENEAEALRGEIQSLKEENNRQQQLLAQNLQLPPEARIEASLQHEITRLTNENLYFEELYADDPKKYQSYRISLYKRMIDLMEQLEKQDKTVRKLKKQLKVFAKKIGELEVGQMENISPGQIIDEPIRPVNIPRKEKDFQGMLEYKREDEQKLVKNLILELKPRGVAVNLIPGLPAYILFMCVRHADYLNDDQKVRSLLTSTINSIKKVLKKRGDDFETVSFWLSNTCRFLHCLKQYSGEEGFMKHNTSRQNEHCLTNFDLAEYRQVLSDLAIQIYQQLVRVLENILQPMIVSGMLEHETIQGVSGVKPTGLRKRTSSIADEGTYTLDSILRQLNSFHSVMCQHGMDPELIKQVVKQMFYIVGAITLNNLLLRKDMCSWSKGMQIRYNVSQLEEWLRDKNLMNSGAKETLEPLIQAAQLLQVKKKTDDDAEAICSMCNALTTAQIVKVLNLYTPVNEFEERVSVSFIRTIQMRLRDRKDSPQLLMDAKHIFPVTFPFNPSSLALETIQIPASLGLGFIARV

T1: GST-MLLT11 (mouse) (UniProt P97783)
T1 sequence: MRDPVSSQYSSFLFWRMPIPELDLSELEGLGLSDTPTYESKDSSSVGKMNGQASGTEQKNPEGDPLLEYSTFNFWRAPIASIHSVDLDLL

B1: Inorganic pyrophosphatase (Ppa1) (enzyme, UniProt Q9D819 1-289)
chain: MSGFSSEERAAPFTLEYRVFLKNEKGQYISPFHDVPIYADKDVFHMVVEVPRWSNAKMEIATKDPLNPIKQDVKKGKLRYVANLFPYKGYIWNYGAIPQTWEDPGHSDKHTGCCGDNDPIDVCEIGSKVCARGEIIRVKVLGILAMIDEGETDWKVIAINVDDPDAANYKDISDVERLKPGYLEATVDWFRRYKVPDGKPENEFAFNAEFKNKDFAVDIIKSTHDYWKALVTKKTDGKGISCMNTTVSESPFKCDPDAAKAIVDALPPPCESACSLPTDVDKWFHQQKN
B2: Tubulin α chain-like 3 (Tubal3) (protein, UniProt Q3UX10 1-446)
chain: MRECLSIHIGQAGVQIGDACWELYCLEHGIQPDGFILDHQHDNLENPKVEHMNASLDTFFHETRAGKHVPRTLFMDLEPTVIDGIRVGRYHSLFHPEQLVNGKEDAANTYARGRYSVGSEVIELVLERIRKLAEQCSGLQGFLIYRSFGGGTGSGFTSLLMERLSVEYCKKIKLEFSVYPSPRISTAVVEPYNAILTTHSTIEYSDCAFMVDNEALYDICQHKLGIERPSYASINRLIAQVSSSITASLRFEGPLNVDLIEFQTNLVPYPRIHFPITALAPIISAEKAYQEQLSVSDVTASCFEVSNQLVKCDPRLGKYMACCLLYRGDVVPKDVNEAIAAMKSRTSVQFVDWCPTGFKVGINYQPPAVVPGGDLARVQRAVCMLSNTTAIVEAWARLDHKFDLMYAKKAFLHWYITEGMELGEFVEAREDLAALEKDYEEVGLSF
B3: Carbonyl reductase [NADPH] 1 (Cbr1) (enzyme, UniProt P48758 1-277)
chain: MSSSRPVALVTGANKGIGFAITRDLCRKFSGDVVLAARDEERGQTAVQKLQAEGLSPRFHQLDIDNPQSIRALRDFLLKEYGGLDVLVNNAGIAFKVNDDTPFHIQAEVTMKTNFFGTRDVCKELLPLIKPQGRVVNVSSMVSLRALKNCRLELQQKFRSETITEEELVGLMNKFVEDTKKGVHAEEGWPNSAYGVTKIGVTVLSRILARKLNEQRRGDKILLNACCPGWVRTDMAGPKATKSPEEGAETPVYLALLPPDAEGPHGQFVQDKKVEPW
B4: D-β-hydroxybutyrate dehydrogenase, mitochondrial (Bdh1) (enzyme, UniProt Q80XN0 47-343)
chain: ASQADAASGKAILITGCDSGFGFSLAKHLHSKGFLVFAGCLMKDKGDAGVKELDSLKSDRLRTIQLNVCNSEEVEKAVETIRSGLKDPEKGMWGLVNNAGISTFGEVEFTSMETYKEVAEVNLWGTVRTTKSFLPLLRRAKGRVVNISSMLGRMANPARSPYCITKFGIEAFSDCLRYEMHPLGVKVSVVEPGNFIAATSLYSPERIQAIAKKMWDDLPEVVRKDYGRKYFDEKIAKMETYCNSGSTDTSSVINAVTHALTAATPYTRYHPMDYYWWLRMQIMTHFPGAISDKIYIH

No constants are given. Whether binding was seen depends on the method and setting. In cells and extracts the contact can be indirect. A yes stands for co-enrichment or nearness to the bait. Other partners may have been found. Sequences can lack the tags named with a protein.

This assay concerns the target T1, GST-MLLT11 (mouse). Briefly: affinity purification with mass spectrometry; GST-MLLT11 (6 µg) immobilized on Glutathione Sepharose 4B beads, incubated overnight at 4°C with embryonic mouse whole-brain lysate in NP-40 lysis buffer (50 mM Tris pH 8.0, 150 mM NaCl, 1% NP-40); bands cut from a Coomassie-stained SDS-PAGE gel for mass spectrometry; GST beads as control; only the target purified.
“Elongation factor 1-α2 (Eef1a2) (from UniProt P62631 1-463)”: the binding entry was “binds”.
On to “Endoplasmic reticulum chaperone BiP (Hspa5) (from UniProt P20029 20-655)”, for which the binding result was “binds”.
Take “GMP synthase [glutamine-hydrolyzing] (Gmps) (from UniProt Q3THK7 1-693) (enzyme)”: the binding result is reported as “binds”.
For the molecule “Isoform Tau-B of Microtubule-associated protein tau (Mapt) (from UniProt P10637-3 1-364)”, the binding entry was “binds”.
Consider “Myosin-10 (Myh10) (from UniProt Q61879 1-1976)”, for which the binding entry is reported as “binds”.
Consider “Stress-70 protein, mitochondrial (Hspa9) (from UniProt P38647 47-679)”, for which the binding result is given as “binds”.
Then “Tubulin β-1 chain (Tubb1) (from UniProt A2AQ07 1-451)”, with “binds”; and “Tubulin β-4A chain (Tubb4a) (from UniProt Q9D6F9 1-444)”, with “binds”; and “Tubulin β-4B chain (Tubb4b) (from UniProt P68372 1-445)”, with “binds”.
For “Tubulin β-5 chain (Tubb5) (from UniProt P99024 1-444)”, the binding entry is recorded as “binds”.
“Tubulin β-6 chain (Tubb6) (from UniProt Q922F4 1-447)”: the binding result is listed as “binds”.
Turning to “Unconventional myosin-Va (Myo5a) (from UniProt Q99104 1-1853)”, the binding entry is “binds”.
Consider B1, for which the binding result was “binds”.
Take B2: the binding result is “binds”.
B3: the binding result is recorded as “binds”.
Then B4, with “binds”.
